In PubChem BioAssay:
The list shows a part of the results. Further columns of the screen follow, without active or inactive calls.

Experiment: PubChem AID 1586
Conditions: yeast two-hybrid polyglutamine protein interaction, reporter readout; measured here: averaged growth delta OD

Structure (SMILES) | signal change (36 h minus 0 h)
CCN1CCCC(OC(=O)C(c2ccccc2)c2ccccc2)C1 (centres undefined) | 0.121
CC(=O)Oc1ccccc1C(=O)O | 0.151
CC(=O)OCC(=O)[C@H]1CCC2C3CCC4=CC(=O)CC[C@]4(C)C3CC[C@@]21C (some centres undefined) | 0.122
C#C[C@]1(O)CCC2C3CCc4cc(O)ccc4C3CC[C@@]21C (some centres undefined) | 0.0361
NC(Cc1cc(I)c(Oc2ccc(O)c(I)c2)c(I)c1)C(=O)O (centres undefined) | 0.0592
CCN(CC)CCNC(=O)c1cc(S(C)(=O)=O)ccc1OC | 0.066
C[C@@H]1CC2C3C[C@H](F)C4=CC(=O)C=CC4(C)C3(F)[C@@H](O)CC2(C)C1C(=O)COC(=O)C(C)(C)C (some centres undefined) | 0.189
CC1(C)S[C@@H]2[C@H](NC(=O)[C@H](NC(=O)N3CCNC3=O)c3ccccc3)C(=O)N2C1C(=O)O (some centres undefined) | 0.184
O=C(O)P(=O)(O)O | 0.178
C#C[C@]1(O)CCC2C3CCC4=C(CCC(=O)C4)C3CC[C@@]21C (some centres undefined) | 0.203
CCC(Cc1c(I)cc(I)c(N)c1I)C(=O)O (centres undefined) | 0.063
C1CCN2C[C@H]3C[C@H](CN4CCCC[C@@H]34)[C@H]2C1 | 0.197
COC1=CC(C)[C@@H]2C[C@H]3OC(=O)C[C@H]4C(C)=C(OC)C(=O)C([C@@]34C)[C@@]2(C)C1=O (some centres undefined) | 0.236
Nc1nc(N)c2nc(-c3ccccc3)c(N)nc2n1 | 0.135
O=c1cc[nH]c(=S)[nH]1 | 0.0665
CN1C(=O)CC[C@H]1c1cccnc1 | 0.626
Nc1ccc(C(=O)NCC(=O)O)cc1 | 0.257
CC(=O)[C@@]1(O)CCC2C3C[C@H](C)C4=CC(=O)C=CC4(C)[C@@]3(F)[C@@H](O)C[C@@]21C (some centres undefined) | 0.124
c1ccc(CC2=NCCN2)cc1 | 0.186
Nc1ccc(C(=O)O)cc1 | 0.401

As entered above:
signal change (36 h minus 0 h), CC1(C)S[C@@H]2[C@H](NC(=O)[C@H](NC(=O)N3CCNC3=O)c3ccccc3)C(=O)N2C1C(=O)O (some centres undefined) is entered as 0.184
signal change (36 h minus 0 h), COC1=CC(C)[C@@H]2C[C@H]3OC(=O)C[C@H]4C(C)=C(OC)C(=O)C([C@@]34C)[C@@]2(C)C1=O (some centres undefined) is entered as 0.236
signal change (36 h minus 0 h), C[C@@H]1CC2C3C[C@H](F)C4=CC(=O)C=CC4(C)C3(F)[C@@H](O)CC2(C)C1C(=O)COC(=O)C(C)(C)C (some centres undefined) is entered as 0.189

Going on with the list.

Structure (SMILES) | signal change (36 h minus 0 h)
C#C[C@]1(O)CCC2C3CCC4=CC(=O)CC[C@@H]4C3CC[C@@]21C (some centres undefined) | 0.101
CN[C@H](CC(=O)O)C(=O)O | 0.0738
Clc1ccc2c(c1)C(N1CCNCC1)=Nc1ccccc1O2 | 0.108
C=C[C@@]1(C)CC(=O)[C@@]2(O)[C@](C)(O1)[C@@H](OC(C)=O)[C@@H](O)C1C(C)(C)CC[C@H](O)[C@@]12C (some centres undefined) | 0.135
CN(C)CCOC(=O)C(c1ccccc1)C1(O)CCCC1 (centres undefined) | 0.209
CN(C)C(=O)C(CCN1CCC(O)(c2ccc(Cl)cc2)CC1)(c1ccccc1)c1ccccc1 | 0.21
CCOc1ccc(NC(C)=O)cc1 | 0.159
CCCNC(C)C(=O)Nc1ccccc1C (centres undefined) | 0.286
C[C@@H]1CC2C3CCC4=CC(=O)C=C[C@]4(C)[C@@]3(F)[C@@H](O)C[C@]2(C)[C@@]1(O)C(=O)CO (some centres undefined) | 0.0527
CC(=O)OCC1=C(C(=O)O)N2C(=O)[C@@H](NC(=O)Cc3cccs3)[C@H]2SC1 | 0.182
C[C@]12CCC3c4ccc(O)cc4CCC3C1CC[C@@H]2OC(=O)CCC1CCCC1 (some centres undefined) | 0.0312
N[C@@H](Cc1c[nH]c2ccccc12)C(=O)O | 0.153
CCN1CCCC1CNC(=O)c1cc(S(N)(=O)=O)ccc1OC (centres undefined) | 0.0625
NCCCCCC(=O)O | 0.204
COc1ccc(C2C(=O)c3ccccc3C2=O)cc1 | 0.164
NC(Cc1ccc(Cl)cc1)C(=O)O (centres undefined) | 0.164
COc1ccc(/C=C/c2cc(O)cc(O[C@@H]3O[C@H](CO)[C@@H](O)[C@H](O)[C@H]3O)c2)cc1O | 0.376
COC(=O)[C@H]1[C@H]2C[C@H]3c4[nH]c5cc(OC)ccc5c4CCN3C[C@H]2C[C@@H](OC(=O)c2cc(OC)c(OC)c(OC)c2)[C@@H]1OC | 0.163
NC(=O)NC(=O)Cc1ccccc1 | 0.0974
